Assay results from publication doi:10.1101/2022.09.20.508642.
No constants are given. Whether binding was seen depends on the method and setting. Binding seen in cells or lysates may run through a third protein. Binding calls can cover weak binding; strength is not graded here. Where a sequence is shown, tags or fusion partners need not be part of it.

Molecular target: T1, STRUBBELIG (SUB), C-terminal fluorescent protein fusion expressed in Arabidopsis (Arabidopsis thaliana) (UniProt Q8RWZ1)
T1 sequence: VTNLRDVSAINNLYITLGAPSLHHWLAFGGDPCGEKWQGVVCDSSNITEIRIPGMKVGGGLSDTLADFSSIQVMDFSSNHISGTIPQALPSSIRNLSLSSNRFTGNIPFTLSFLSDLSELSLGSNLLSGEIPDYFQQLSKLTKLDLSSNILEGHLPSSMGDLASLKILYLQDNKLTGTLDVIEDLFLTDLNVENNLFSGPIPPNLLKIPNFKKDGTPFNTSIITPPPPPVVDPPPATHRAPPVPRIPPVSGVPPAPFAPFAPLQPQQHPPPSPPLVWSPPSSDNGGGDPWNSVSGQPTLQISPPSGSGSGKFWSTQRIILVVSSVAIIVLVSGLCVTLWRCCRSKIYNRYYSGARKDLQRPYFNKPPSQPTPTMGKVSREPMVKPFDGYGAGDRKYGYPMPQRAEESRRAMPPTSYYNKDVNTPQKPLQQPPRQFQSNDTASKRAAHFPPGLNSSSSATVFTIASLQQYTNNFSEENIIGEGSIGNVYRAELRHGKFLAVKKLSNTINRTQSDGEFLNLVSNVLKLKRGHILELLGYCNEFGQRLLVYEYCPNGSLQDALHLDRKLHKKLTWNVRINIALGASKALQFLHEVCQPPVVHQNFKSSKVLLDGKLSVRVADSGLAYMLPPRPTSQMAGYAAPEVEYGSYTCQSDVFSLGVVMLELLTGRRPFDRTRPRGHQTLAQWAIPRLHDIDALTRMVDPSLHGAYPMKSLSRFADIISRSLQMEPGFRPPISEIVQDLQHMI
Assay: FRET or BRET

With “mCherry:QKYdelC2A (QKY with N-terminal deletion of the C2A domain) (Arabidopsis thaliana) (domain or fragment)” the binding was “binds”.
